The values that follow come from article doi:10.1101/2023.07.28.550915.

The chains behind the UniProt entries cited, without tags or fusion partners.
UniProt P49674: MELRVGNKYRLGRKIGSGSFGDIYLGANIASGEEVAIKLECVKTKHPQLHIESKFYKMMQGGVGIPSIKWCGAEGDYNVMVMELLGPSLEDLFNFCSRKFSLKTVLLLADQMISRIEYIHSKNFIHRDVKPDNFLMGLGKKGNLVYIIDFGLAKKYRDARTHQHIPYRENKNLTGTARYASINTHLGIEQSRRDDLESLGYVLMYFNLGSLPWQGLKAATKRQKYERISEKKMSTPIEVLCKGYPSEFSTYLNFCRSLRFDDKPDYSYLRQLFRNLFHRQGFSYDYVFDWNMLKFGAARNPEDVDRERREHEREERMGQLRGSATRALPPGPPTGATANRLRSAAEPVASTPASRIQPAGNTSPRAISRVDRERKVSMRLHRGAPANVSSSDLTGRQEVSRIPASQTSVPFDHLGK

Test in all cases: co-IP
Experiment [1] concerns the target T1, Flag-tagged human DVL3 (Dishevelled 3), wild type (human) (UniProt Q92997).
T1 sequence: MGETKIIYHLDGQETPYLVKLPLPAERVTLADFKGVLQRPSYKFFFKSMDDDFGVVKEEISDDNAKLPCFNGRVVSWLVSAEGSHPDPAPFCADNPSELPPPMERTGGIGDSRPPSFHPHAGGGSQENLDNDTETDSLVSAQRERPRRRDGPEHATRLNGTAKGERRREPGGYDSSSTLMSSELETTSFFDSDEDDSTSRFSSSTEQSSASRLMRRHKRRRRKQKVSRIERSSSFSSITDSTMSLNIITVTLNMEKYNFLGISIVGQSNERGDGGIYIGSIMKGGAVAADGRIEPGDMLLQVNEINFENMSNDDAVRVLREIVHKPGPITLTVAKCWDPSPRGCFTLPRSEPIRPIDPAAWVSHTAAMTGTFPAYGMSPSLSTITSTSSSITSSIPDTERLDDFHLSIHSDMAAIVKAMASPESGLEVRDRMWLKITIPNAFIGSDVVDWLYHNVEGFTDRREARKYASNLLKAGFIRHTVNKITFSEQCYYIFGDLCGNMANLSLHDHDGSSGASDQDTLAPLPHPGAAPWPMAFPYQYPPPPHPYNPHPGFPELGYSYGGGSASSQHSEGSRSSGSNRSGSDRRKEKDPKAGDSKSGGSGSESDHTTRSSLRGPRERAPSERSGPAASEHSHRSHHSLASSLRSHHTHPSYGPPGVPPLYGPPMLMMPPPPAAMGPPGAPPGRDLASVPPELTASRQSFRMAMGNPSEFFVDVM

The target in experiment [2] is T2, DVL3 E710A/D714A (glutamylation-defective DVL3) (human) (UniProt Q92997).
T2 sequence: T1 sequence with E710A, D714A

The target in experiment [3] is T1, Flag-tagged human DVL3 (Dishevelled 3), wild type (human). The source holds these as a separate data set.
A further experiment has as its target T3, DVL1 (human) (UniProt O14640).
T3 sequence: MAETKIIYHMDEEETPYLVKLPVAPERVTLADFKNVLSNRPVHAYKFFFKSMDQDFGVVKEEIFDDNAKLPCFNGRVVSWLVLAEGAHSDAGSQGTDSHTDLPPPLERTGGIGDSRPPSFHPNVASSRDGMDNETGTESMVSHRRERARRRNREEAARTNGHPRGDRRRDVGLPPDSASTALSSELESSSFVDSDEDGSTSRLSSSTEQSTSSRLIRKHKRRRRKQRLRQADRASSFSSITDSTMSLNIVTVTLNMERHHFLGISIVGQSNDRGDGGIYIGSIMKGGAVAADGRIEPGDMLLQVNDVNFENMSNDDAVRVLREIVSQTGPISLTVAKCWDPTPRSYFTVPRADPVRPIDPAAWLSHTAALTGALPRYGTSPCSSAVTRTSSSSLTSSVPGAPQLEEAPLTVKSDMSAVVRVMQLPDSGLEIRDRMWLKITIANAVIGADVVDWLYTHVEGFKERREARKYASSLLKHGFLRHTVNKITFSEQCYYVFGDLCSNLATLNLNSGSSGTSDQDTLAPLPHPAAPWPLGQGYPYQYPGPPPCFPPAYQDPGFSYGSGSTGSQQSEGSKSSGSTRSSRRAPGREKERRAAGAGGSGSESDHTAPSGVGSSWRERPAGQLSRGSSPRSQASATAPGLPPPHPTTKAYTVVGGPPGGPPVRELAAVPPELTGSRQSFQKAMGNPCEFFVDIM

Numbering of substitutions follows the chain as printed. Read-outs that look alike come from different tables or passages of the source. Results are given in words; binding and its absence hold for the method and conditions named. In cells and extracts the contact can be indirect. Some results given as binding are weak or reduced against the parent protein; the word gives no strength. For part of these data: Where a sequence is shown, tags or fusion partners need not be part of it.

As to “casein kinase 1 (CK1) ε, endogenous (from UniProt P49674 1-416) (enzyme)”, the binding result in experiment [1] is on record as “binds”.

B1: CCP6 (cytosolic carboxypeptidase 6), EYFP-tagged (enzyme, UniProt Q09LZ8 1-540)
chain: MAERSQTAPEAGNDTGNEDAIGGNVNKYIVLPNGYSGQPKKGHLTFDACFESGNLGRVEQVSDFEYDLFIRPDTCNPRFRVWFNFTVENVKELQRVIFNIVNFSKTKSLYRDGMAPMVKSTSRPKWQRLPPKNVYYYRCPDHRKNYVMSFAFCFDREDDIYQFAYCYPYTYTRFQHYLDSLQKKNMDYFFREQLGQSVQQRQLDLLTITSPENLREGSEKKVIFITGRVHPGETPSSFVCQGIIDFLVSQHPIARVLREHLVFKIAPMLNPDGVYLGNYRCSLMGFDLNRHWLDPSPWAHPTLHGVKQLIIKMYNDPKTSLEFYIDIHAHSTMMNGFMYGNIFEDEERFQRQSIFPKLLCQNAEDFSYTSTSFNRDAVKAGTGRRFLGGLLDHSSYCYTLEVSFYSYIIGGTTAAVPYTEEAYMKLGRNVARTFLDYYRLNSLVEKIAVPMPRLRSKEERRLGWEHPSCLRAEQPLEVLGIPMCSGKALNEHLGNDIQWHLDCGSSTLPLGLISCSPSSSASWNDMAMSNSILLPDHSFH
For the molecule B1, the binding entry in experiment [2] and in experiment [3] was “binds” in each case.

B2: human TTLL11 (tubulin tyrosine ligase-like 11) (enzyme, UniProt Q8NHH1 1-710)
chain: MRRGSSESELAARWEAEAVAAAKAAAKAEAEATAETVAEQVRVDAGAAGEPECKAGEEQPKVLAPAPAQPSAAEEGNTQVLQRPPPTLPPSKPKPVQGLCPHGKPRDKGRSCKRSSGHGSGENGSQRPVTVDSSKARTSLDALKISIRQLKWKEFPFGRRLPCDIYWHGVSFHDNDIFSGQVNKFPGMTEMVRKITLSRAVRTMQNLFPEEYNFYPRSWILPDEFQLFVAQVQMVKDDDPSWKPTFIVKPDGGCQGDGIYLIKDPSDIRLAGTLQSRPAVVQEYICKPLLIDKLKFDIRLYVLLKSLDPLEIYIAKDGLSRFCTEPYQEPTPKNLHRIFMHLTNYSLNIHSGNFIHSDSASTGSKRTFSSILCRLSSKGVDIKKVWSDIISVVIKTVIALTPELKVFYQSDIPTGRPGPTCFQILGFDILLMKNLKPILLEVNANPSMRIEHEHELSPGVFENVPSLVDEEVKVAVIRDTLRLMDPLKKKRENQSQQLEKPFAGKEDALDGELTSAPDCNANPEAHLPSICLKQVFPKYAKQFNYLRLVDRMANLFIRFLGIKGTMKLGPTGFRTFIRSCKLSSSSLSMAAVDILYIDITRRWNSMTLDQRDSGMCLQAFVEAFFFLAQRKFKMLPLHEQVASLIDLCEYHLSLLDEKRLVCGRGVPSGGRPPHRGPPQEPSPSAQPAGDNPPPRTSCANKLSHPRHTLS
Consider B2, for which the binding entry (in experiment [3]; in the experiment with DVL1 (human)) was “binds” throughout.

B3: CCP1 (cytosolic carboxypeptidase 1), EYFP-tagged (enzyme, UniProt Q641K1 1-1218)
chain: MSKLKVVGEKSLTNSSRVVGLLAQLEKINTDSTESDTARYVTSKILHLAQSQEKTRREMTTKGSTGMEVLLSTLENTKDLQTVLNILSILIELVSSGGGRRASFLVAKGGSQILLQLLMNASKDSPPHEEVMVQTHSILAKIGPKDKKFGVKARVNGALTVTLNLVKQHFQNYRLVLPCLQLLRVYSTNSVNSVSLGKNGVVELMFKIIGPFSKKNSGLMKVALDTLAALLKSKTNARRAVDRGYVQVLLTIYVDWHRHDNRHRNMLIRKGILQSLKSVTNIKLGRKAFIDANGMKILYNTSQECLAVRTLDPLVNTSSLIMRKCFPKNRLPLPTIKSSFHFQLPIIPVTGPVAQLYSLPPEVDDVVDESDDNDDIDLEVENELENEDDLDQSFKNDDIETDINKLRPQQVPGRTIEELKMYEHLFPELVDDFQDYELISKEPKPFVFEGKARGPIVVPTAGEEVPGNSGSVKKGVVMKERASPKGEEAKEDPKGHDRTLPQQLGGQSRVAPSAHSFNNDLVKALDRITLQNVPSQVASGLNAGMRKDFGLPLTVLSCTKACPHVAKCGSTLFEGRTVHLGKLCCTGVETEDDEDTESHSSTEQAPSVEASDGPTLHDPDLYIEIVKNTKSVPEYSEVAYPDYFGHIPPPFKEPILERPYGVQRTKIAQDIERLIHQNDIIDRVVYDLDNPTYTTPEEGDTLKFNSKFESGNLRKVIQIRKSEYDLILNSDINSNHYHQWFYFEVSGMRPGVAYRFNIINCEKSNSQFNYGMQPLMYSVQEALNARPWWIRMGTDICYYKNHFSRSSVAAGGQKGKSYYTITFTVNFPHKDDVCYFAYHYPYTYSTLQMHLQKLESAHNPQQIYFRKDVLCETLSGNICPLVTITAMPESNYYEHICQFRTRPYIFLSARVHPGETNASWVMKGTLEYLMSNSPTAQSLRESYIFKIVPMLNPDGVINGNHRCSLSGEDLNRQWQSPNPELHPTIYHAKGLLQYLAAVKRLPLVYCDYHGHSRKKNVFMYGCSIKETVWHTHDNSASCDIVEDMGYRTLPKILSHIAPAFCMSSCSFVVEKSKESTARVVVWREIGVQRSYTMESTLCGCDQGRYKGLQIGTRELEEMGAKFCVGLLRLKRLTSSLEYNLPSNLLDFENDLIESSCKVTSPTTYVLDEDEPRFLEEVDYSAESNDELDVELAENTGDYEPSAQEEALSDSEVSRTHLI
As for B3, the binding entry in experiment [2] and in experiment [3] was “binds” throughout.

B4: CCP5 (cytosolic carboxypeptidase 5), EYFP-tagged (enzyme, UniProt Q09M02 1-886)
chain: MELRCGGLLFSSRFDSGNLAHVEKVETVSSDGEGVGGVATAPASGSAASPDYEFNVWTRPDCAETEYENGNRSWFYFSVRGGTPGKLIKINIMNMNKQSKLYSQGMAPFVRTLPSRPRWERIRERPTFEMTETQFVLSFVHRFVEGRGATTFFAFCYPFSYSDCQDLLSQLDQRFSENYSTHSSPLDSIYYHRELLCYSLDGLRVDLLTITSCHGLRDDREPRLEQLFPDLGTPRPFRFTGKRIFFLSSRVHPGETPSSFVFNGFLDFILRPDDPRAQTLRRLFVFKLIPMLNPDGVVRGHYRTDSRGVNLNRQYLKPDAVLHPAIYGAKAVLLYHHVHSRLNAKSPTNQQPTLHLPPEAPLSDLEKANNLHNEAHLGQSPDGENPATWPETEPAEEKTDPVWLMPQPIPELEEPAPDTIPPKESGVAYYVDLHGHASKRGCFMYGNSFSDESTQVENMLYPKLISLNSAHFDFQGCNFSEKNMYARDRRDGQSKEGSGRVAIYKASGIIHSYTLECNYNTGRSVNSIPAACHDNGRASPPPPPAFPSRYTVELFEQVGRAMAIAALDMAECNPWPRIVLSEHSSLTNLRAWMLRHVRNSRGLTSAGNMGASKKRGARTPPKSNNSLPVSCSENALSRVRSFSTGTSTGGSSSSQQNSPQMKNSPSFPFHGSRTAGLPGLGSSTQKVSHRVLGPVREPRCSDRRRRQQPLNHRSTTSSLAPSPTLASSGPTSSRNMGSCLLPNSLSLSGSSCSFSSSGDKPEAVMVIGKSLLGAGARIPCIRTRLQARPRLGRSSPPTRRGMRGSSPTSPIPQTRESSELEPGPHSATPGLPQAGPPRPRSAPAFSPISCTLSDSPSRICYSRGLLNQCEVCFVPKSPPLTISPRV
With B4, the binding result in experiment [2] and in experiment [3] was “binds” throughout.
